Experimental data taken from PubChem BioAssay AID488837 (National Center for Advancing Translational Sciences (NCATS), 2010).
About 20 (0.006%) of roughly 330,000 compounds were called active. The inconclusive results got no clear call from the source; some entries with a clear call stand among them for comparison. Calls follow the shape of the dose curve; as a rule, active = well fitted inhibition curve with a large enough effect; inconclusive = small, poorly fitted or top-dose-only effect, or effect the other way; inactive = flat fitted curve, though single readings scatter. A potency beside an inconclusive call is a rough fit, not a confirmed value.

The chains behind the UniProt entries cited, without tags or fusion partners. Where a name states a change or a piece, a line headed by the entry shows the natural chain unless it says otherwise.
UniProt O00167: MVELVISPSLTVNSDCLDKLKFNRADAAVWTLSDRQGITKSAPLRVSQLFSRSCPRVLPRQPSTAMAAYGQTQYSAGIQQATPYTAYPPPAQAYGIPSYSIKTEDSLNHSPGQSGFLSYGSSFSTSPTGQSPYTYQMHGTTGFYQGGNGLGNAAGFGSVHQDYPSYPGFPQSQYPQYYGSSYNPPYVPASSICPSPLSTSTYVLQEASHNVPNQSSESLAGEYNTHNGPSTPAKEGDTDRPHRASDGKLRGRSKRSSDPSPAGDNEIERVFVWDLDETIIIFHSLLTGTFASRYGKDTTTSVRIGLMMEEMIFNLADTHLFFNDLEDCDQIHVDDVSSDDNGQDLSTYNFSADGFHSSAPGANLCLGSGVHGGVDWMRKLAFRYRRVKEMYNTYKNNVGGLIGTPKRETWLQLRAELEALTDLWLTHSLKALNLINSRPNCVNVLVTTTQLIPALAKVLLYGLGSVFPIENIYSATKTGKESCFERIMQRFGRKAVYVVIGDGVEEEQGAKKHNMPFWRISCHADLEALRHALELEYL

Target: Protein phosphatase EYA2 (Homo sapiens) (UniProt O00167)
Experiment: qHTS Assay for Inhibitors of the Phosphatase Activity of Eya2
Conditions: recombinant Eya2, OMFP fluorescence dephosphorylation (OMFP is methylfluorescein phosphate); activity, negative = inhibition: at 76.9 µM (top of the series) unless noted
Outline: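 Eya2 protein (added as 0.2 uM solution) was preincubated with compound for 10 min at ambient temperature in 50 mM HEPES pH 7.5, 50 mM NaCl, 5 uM MgCl2, 0.05% BSA, 1 mM DTT. OMFP (added at 50 uM) then reacted 10 min; fluorescence read at 485/525 nm.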
% is scaled to controls: 0 for no effect and ±100 for the full control effect; potency is read from the fitted curve at half-maximal effect.

Q: For `COc1cc(C(=O)Nc2ccc(NC(=O)c3ccccc3Cl)nc2)cc(OC)c1OC`, which Potency is on record?
A: Its Potency is inconclusive: 17.8 µM [inhibitor, partial curve].

Q: For `OC(c1ccccc1)C(CN1CCOCC1)c1ccccc1` (stereo not given), which Potency is on record?
A: The Potency was inconclusive: 89.1 µM [inhibitor, single point].

Q: For `CCc1nnc(NS(=O)(=O)c2ccc(NC(=S)NC(=O)c3ccc(F)cc3)cc2)s1`, which “activity, negative = inhibition” value is on record?
A: The value was inactive: 3.43%.

Q: Which Potency does the source give for `O=C1CCCN1CCCNS(=O)(=O)c1cccc(F)c1` here?
A: The Potency was inconclusive: 100 µM [inhibitor, single point].

Q: `O=C(O)c1ccc(C=C(c2nc3ccccc3s2)c2nc3ccccc3s2)cc1` was tested. Which “activity, negative = inhibition” value did it give?
A: Its value is inactive: 13.6%.

Q: Which activity, negative = inhibition does the source give for `CCN1/C(=C/c2ccc3cc(C)cc(C)c3[n+]2CC)Sc2cc(C)ccc21` here?
A: Its activity, negative = inhibition is inconclusive: 38.5% [activator].

Q: `OCC1(CCc2ccccc2)CCN(C/C=C/c2ccccc2)CC1` was tested. Which Potency did it give?
A: Its Potency is inconclusive: 28.2 µM [inhibitor, single point].

Q: With `COc1ccccc1N1CCN(C(=O)c2cc(-c3ccc(F)cc3)[nH]c2C)CC1` as the molecule, how does the Potency read?
A: The Potency was inconclusive: 100 µM [inhibitor, single point].

Q: `CCCc1cc(=O)[nH]c(SCC(=O)c2cc(C)n(C3CC3)c2C)n1` was tested. Which “activity, negative = inhibition” value did it give?
A: Its value is inactive: 6.95%.

Q: With `COc1ccc(NC(=O)c2ccco2)cc1NC(=O)c1ccc(Br)o1` as the molecule, how does the Potency read?
A: The Potency was inconclusive: 89.1 µM [inhibitor, single point].

Q: Which “activity, negative = inhibition” value does the source give for `COc1cccc(NC(=O)c2csc3c2CCCC3)c1` here?
A: The value was inactive: 2.65%.

Q: `CCOCCn1c(SC(C)C(C)=O)nc2c1c(=O)[nH]c(=O)n2C` (stereo not given) was tested. Which Potency did it give?
A: Its Potency is inconclusive: 200 µM [inhibitor, partial curve, poor fit].

Q: For `CCOc1ccc(-c2nnc(NC(=O)Cc3cc(OC)c(OC)c(OC)c3)o2)cc1`, which Potency is on record?
A: The Potency was inconclusive: 35.5 µM [inhibitor, single point].

Q: `Cc1cccc(NC(=O)Cn2c(=O)oc3ccccc32)c1C` was tested. Which Potency did it give?
A: The Potency was inconclusive: 100 µM [inhibitor, single point].

Q: How did the Potency turn out when `CCN(CC)CCSc1nnc2c3cc(C)ccc3n(Cc3ccccc3)c2n1` was run?
A: The Potency was inconclusive: 100 µM [inhibitor, single point].

Q: Which Potency does the source give for `Cc1c(C(=O)O)sc(S(=O)(=O)N2CCNCC2)c1C(=O)O` here?
A: Its Potency is inconclusive: 126 µM [inhibitor, partial curve, poor fit].

Q: For `CCn1c(C)c(CS(=O)(=O)c2ccccc2)[nH]c1=O`, which “activity, negative = inhibition” value is on record?
A: Its value is inactive: -16.3%.

Q: How did the Potency turn out when `Fc1ccc(-n2nnc(-c3ccnc4ccccc34)n2)cc1` was run?
A: Its Potency is inconclusive: 17.8 µM [inhibitor, single point].

Q: With `COC(=O)c1ccc(NC(=O)c2c(Br)cnn2C)cc1` as the molecule, how does the Potency read?
A: Its Potency is inconclusive: 112 µM [inhibitor, single point].

Q: Which “activity, negative = inhibition” value does the source give for `COc1cccc(/C=N/NC(=O)CSc2cccc3cccnc23)c1` here?
A: Its value is inactive: -6.69%.

Q: Which “activity, negative = inhibition” value does the source give for `O=C(NC1CCCc2ccccc21)c1ccc(=O)[nH]c1` (stereo not given) here?
A: The value was inactive: 3.8%.

Q: With `CCN(CC)C(=O)CSc1nc2c(sc(=S)n2-c2ccccc2)c(=O)n1-c1ccccc1OC` as the molecule, how does the Potency read?
A: Its Potency is inconclusive: 79.4 µM [inhibitor, single point].

Q: For `CCOc1ccc(N=C2NC(=O)S/C2=C\c2ccc(Cl)cc2)cc1`, which “activity, negative = inhibition” value is on record?
A: Its value is inactive: 6.65%.

Q: How did the “activity, negative = inhibition” value turn out when `Cc1cc(C)cc(-n2c(C)cc(/C=C3\C(=N)N4N=C(CC(C)C)SC4=NC3=O)c2C)c1` was run?
A: The value was inactive: 1.37%.

Q: With `CCC(=O)Oc1ccc(C(CC)C(CC)c2ccc(OC(=O)CC)cc2)cc1` (stereo not given) as the molecule, how does the “activity, negative = inhibition” value read?
A: The value was inactive: 1.99%.

Q: Which Potency does the source give for `CCSc1nc(C)c(C)c(=O)[nH]1` here?
A: The Potency was inconclusive: 89.1 µM [inhibitor, single point].

Q: With `O=C(c1ccco1)N1CCN(CCOCCOc2cccc3ccccc23)CC1` as the molecule, how does the Potency read?
A: Its Potency is inconclusive: 11.2 µM [inhibitor, single point].

Q: Which Potency does the source give for `Cc1ccc(S(=O)(=O)N(Cc2ccccc2)c2ccccn2)cc1[N+](=O)[O-]` here?
A: Its Potency is inconclusive: 20 µM [inhibitor, single point].

Q: `CN(C)CCCN(C(=O)c1ccc(C(=O)c2ccccc2)cc1)c1nc2ccc(F)cc2s1` was tested. Which “activity, negative = inhibition” value did it give?
A: Its value is inactive: -4.29%.

Q: `CN(CCC#N)C(=O)COC(=O)c1ccc(Cl)cc1O` was tested. Which “activity, negative = inhibition” value did it give?
A: Its value is inactive: 3.94%.

Q: How did the Potency turn out when `COc1ccc(/C=N/NC(=O)CCn2cnc3ccccc32)cc1` was run?
A: Its Potency is inconclusive: 100 µM [inhibitor, single point].

Q: With `O=C(CCCCC(=O)NCCCc1ccccc1)NCCCc1ccccc1` as the molecule, how does the Potency read?
A: The Potency was inconclusive: 112 µM [inhibitor, single point].

Q: How did the “activity, negative = inhibition” value turn out when `OCCN1CCN(CC(O)COc2ccc(Cl)cc2)CC1` (stereo not given) was run?
A: Its value is inactive: 19%.

Q: For `O=C1Nc2ccc([N+](=O)[O-])cc2C1=Nc1cccc(CO)c1`, which Potency is on record?
A: The Potency was inconclusive: 100 µM [inhibitor, single point].

Q: Which Potency does the source give for `O=C(O)c1ccccc1N/N=C/c1c(Sc2nnnn2-c2ccccc2)nc2ccccn2c1=O` here?
A: Its Potency is inconclusive: 50.1 µM [activator, partial curve, poor fit].

Q: For `Cc1ccc(NC(=O)c2ccc(CNc3c(N4CCC(C)CC4)c(=O)c3=O)cc2)cc1`, which Potency is on record?
A: The Potency was inconclusive: 22.4 µM [inhibitor, single point].

Q: For `CCOCCCNC(=O)C(NC(=O)c1ccc2c(c1)OCO2)c1ccccc1` (stereo not given), which Potency is on record?
A: Its Potency is inconclusive: 89.1 µM [inhibitor, single point].

Q: With `COc1cc2c(cc1OC)C(c1ccc([N+](=O)[O-])cc1)NCC2` (stereo not given) as the molecule, how does the Potency read?
A: Its Potency is inconclusive: 25.1 µM [inhibitor, single point].

Q: For `O=C(NCCOc1ccccc1)C1CCC(=O)N(CCc2ccccn2)C1` (stereo not given), which Potency is on record?
A: Its Potency is inconclusive: 35.5 µM [inhibitor, partial curve].

Q: For `CCN1C(=O)C(CC(=O)Nc2ccccc2)N(Cc2ccccn2)C1=S` (stereo not given), which Potency is on record?
A: The Potency was inconclusive: 28.2 µM [inhibitor, single point].

Q: With `CCCNS(=O)(=O)c1cccc(C(=O)OCc2cc(=O)oc3cc(OC)ccc23)c1` as the molecule, how does the Potency read?
A: Its Potency is inconclusive: 100 µM [inhibitor, single point].

Q: With `COC(=O)c1c(N(S(C)(=O)=O)S(C)(=O)=O)sc2c1CCN(c1ncc(C(F)(F)F)cc1Cl)C2` as the molecule, how does the “activity, negative = inhibition” value read?
A: The value was inactive: 18.6%.

Q: For `CC(=O)c1cccc(OCc2cc(C(=O)N3C[C@@H](C)O[C@@H](C)C3)no2)c1`, which “activity, negative = inhibition” value is on record?
A: Its value is inactive: 6.43%.

Q: How did the Potency turn out when `COc1cc2[nH]c(=S)n(Cc3cccs3)c(=O)c2cc1OC` was run?
A: The Potency was inconclusive: 100 µM [inhibitor, single point].

Q: How did the Potency turn out when `CCOC(=O)c1[nH]ncc1CN1CCC(Cc2ccccc2)(C(=O)OCC)CC1` was run?
A: Its Potency is inconclusive: 251 µM [inhibitor, single point].
